Data published in ChEMBL document CHEMBL2424610, “Design, synthesis, and evaluation of 4-(substituted)phenyl-2-thioxo-3,4-dihydro-1H-chromino[4,3-d]pyrimidin-5-one and 4-(substituted)phenyl-3,4-dihydro-1H-chromino[4,3-d]pyrimidine-2,5-dione analogs as antitubercular agents” (Med Chem Res, 2013).
Converted amounts (≈) assume the structure as drawn.

Experiments:
[1] = system: Mycobacterium tuberculosis; assay: Antitubercular activity against Mycobacterium tuberculosis H37Rv ATCC 27294 assessed as growth inhibition by luminescence-based low oxygen-recovery assay; format: functional
[2] = system: Mycobacterium tuberculosis; assay: microbe, parasite or virus in culture; details: H37Rv ATCC 27294, 96 h

CO[C@H]1/C=C/O[C@@]2(C)Oc3c(C)c(O)c4c(O)c(c(/C=N/N5CCN(C)CC5)c(O)c4c3C2=O)NC(=O)/C(C)=C\C=C\[C@H](C)[C@H](O)[C@@H](C)[C@@H](O)[C@@H](C)[C@H](OC(C)=O)[C@@H]1C [RIFAMPIN]
MIC [1]: 3.8 µM (≈ 3.13 µg/mL)
MIC [2]: 0.1 µM (≈ 0.0823 µg/mL)
